Assay [1] addresses A. ferrooxidans CbbQ3 (CbbQ of the carboxysomal form IA^C gene cluster) (Acidithiobacillus ferrooxidans ATCC23270) (UniProt B7JB17). Nature of the assay: co-purification; CbbQ and CbbO co-produced in E. coli BL21(DE3); the complex purified by affinity chromatography and size-exclusion chromatography (ion exchange step omitted); SDS-PAGE of the purified complex. (In general: SEC sorts molecules by how far they enter the pores of the column.)

Chains of the proteins cited; added tags and fusions are not shown. Lines headed by an entry give the natural chain unless they say otherwise; changes in a name come on top.
UniProt B7JB17: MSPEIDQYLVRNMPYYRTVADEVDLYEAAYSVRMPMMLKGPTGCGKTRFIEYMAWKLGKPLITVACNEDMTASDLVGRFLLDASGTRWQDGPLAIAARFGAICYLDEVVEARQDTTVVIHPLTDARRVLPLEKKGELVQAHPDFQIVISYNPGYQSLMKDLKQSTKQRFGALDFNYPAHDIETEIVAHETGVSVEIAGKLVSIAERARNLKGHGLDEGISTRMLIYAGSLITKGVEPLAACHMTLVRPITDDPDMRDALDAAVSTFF
UniProt D0KZ75: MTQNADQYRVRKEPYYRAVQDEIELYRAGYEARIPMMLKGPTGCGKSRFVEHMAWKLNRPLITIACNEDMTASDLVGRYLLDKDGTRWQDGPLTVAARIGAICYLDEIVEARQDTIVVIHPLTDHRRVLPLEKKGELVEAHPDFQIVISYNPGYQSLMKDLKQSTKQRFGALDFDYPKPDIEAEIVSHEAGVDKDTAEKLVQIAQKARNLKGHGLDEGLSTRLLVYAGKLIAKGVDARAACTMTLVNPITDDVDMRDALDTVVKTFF
UniProt B7JB16: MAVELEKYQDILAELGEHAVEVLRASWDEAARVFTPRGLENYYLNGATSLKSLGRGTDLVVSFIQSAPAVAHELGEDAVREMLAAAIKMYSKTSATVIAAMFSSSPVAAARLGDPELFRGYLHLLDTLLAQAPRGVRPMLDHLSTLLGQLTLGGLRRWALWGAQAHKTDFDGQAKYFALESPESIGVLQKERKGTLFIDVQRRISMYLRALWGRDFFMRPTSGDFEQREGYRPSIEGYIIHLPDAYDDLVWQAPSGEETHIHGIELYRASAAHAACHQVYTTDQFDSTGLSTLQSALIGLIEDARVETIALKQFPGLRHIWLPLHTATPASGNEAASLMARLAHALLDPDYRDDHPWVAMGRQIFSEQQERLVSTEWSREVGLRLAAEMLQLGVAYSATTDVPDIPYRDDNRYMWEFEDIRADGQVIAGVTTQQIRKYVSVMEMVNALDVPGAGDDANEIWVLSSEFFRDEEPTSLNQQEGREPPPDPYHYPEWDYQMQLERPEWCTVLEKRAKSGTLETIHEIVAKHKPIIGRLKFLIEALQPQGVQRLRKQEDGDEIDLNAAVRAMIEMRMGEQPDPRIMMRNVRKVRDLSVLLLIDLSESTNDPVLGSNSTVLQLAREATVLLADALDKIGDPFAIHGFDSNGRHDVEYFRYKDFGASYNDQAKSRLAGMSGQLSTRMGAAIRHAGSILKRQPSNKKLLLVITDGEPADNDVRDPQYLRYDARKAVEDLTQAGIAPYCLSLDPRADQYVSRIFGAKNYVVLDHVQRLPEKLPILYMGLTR
UniProt D0KZ80: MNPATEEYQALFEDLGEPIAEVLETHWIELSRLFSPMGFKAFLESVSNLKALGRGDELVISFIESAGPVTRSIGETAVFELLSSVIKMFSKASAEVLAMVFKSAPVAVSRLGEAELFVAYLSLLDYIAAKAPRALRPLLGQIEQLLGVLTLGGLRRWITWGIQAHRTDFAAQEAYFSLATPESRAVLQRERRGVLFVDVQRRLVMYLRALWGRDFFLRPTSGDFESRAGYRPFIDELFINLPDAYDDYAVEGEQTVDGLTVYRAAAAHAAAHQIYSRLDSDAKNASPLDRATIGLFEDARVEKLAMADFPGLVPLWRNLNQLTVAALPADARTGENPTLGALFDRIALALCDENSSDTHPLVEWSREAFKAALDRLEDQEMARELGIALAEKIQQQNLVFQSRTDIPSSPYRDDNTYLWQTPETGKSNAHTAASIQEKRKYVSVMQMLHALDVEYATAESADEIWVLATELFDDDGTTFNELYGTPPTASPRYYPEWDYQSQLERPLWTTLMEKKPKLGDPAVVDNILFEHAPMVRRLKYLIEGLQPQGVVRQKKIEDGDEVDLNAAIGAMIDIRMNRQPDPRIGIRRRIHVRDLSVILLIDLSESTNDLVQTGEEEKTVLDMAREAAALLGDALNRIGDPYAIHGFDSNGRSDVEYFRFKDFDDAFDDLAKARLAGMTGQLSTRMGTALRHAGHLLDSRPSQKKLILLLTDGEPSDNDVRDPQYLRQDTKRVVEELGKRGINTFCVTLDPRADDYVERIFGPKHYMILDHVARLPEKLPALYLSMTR

Assay [2] deals with H. neapolitanus CbbQ (carboxysomal gene cluster) (Halothiobacillus neapolitanus ATCC23641) (UniProt D0KZ75). Description: co-purification; CbbQ and CbbO co-produced in E. coli BL21(DE3); the complex purified by affinity chromatography, ion exchange chromatography and size-exclusion chromatography; SDS-PAGE of the purified complexes.

No constants are given. Whether binding was seen depends on the method and setting. In cells and extracts the contact can be indirect. Binding can be weak; no strength is given.

Data on 2 substances can be found in paper PMC8718961, “The CbbQO-type rubisco activases encoded in carboxysome gene clusters can activate carboxysomal form IA rubiscos” (The Journal of Biological Chemistry, 2021).

With “A. ferrooxidans CbbO3 (CbbO of the carboxysomal form IA^C gene cluster) (from UniProt B7JB16)”, the binding entry in assay [1] is “binds”.

Take “H. neapolitanus CbbO (carboxysomal gene cluster) (from UniProt D0KZ80)”: the binding result in assay [2] is on record as “binds”.
